Results are given in words; binding and its absence hold for the method and conditions named. In cells and extracts the contact can be indirect. Some results given as binding are weak or reduced against the parent protein; the word gives no strength. Tags and fused reporters may be left off the sequences shown.
Molecular target: FLAG-HHARI (Human homolog of Ariadne, wild type) (human), Q9Y4X5
Test: co-IP
Conditions: remark: other sources report otherwise

B1: HA-RIG-I (Retinoic Acid-Inducible Gene I), O95786 1-925 (protein)
chain: MTTEQRRSLQAFQDYIRKTLDPTYILSYMAPWFREEEVQYIQAEKNNKGPMEAATLFLKFLLELQEEGWFRGFLDALDHAGYSGLYEAIESWDFKKIEKLEEYRLLLKRLQPEFKTRIIPTDIISDLSECLINQECEEILQICSTKGMMAGAEKLVECLLRSDKENWPKTLKLALEKERNKFSELWIVEKGIKDVETEDLEDKMETSDIQIFYQEDPECQNLSENSCPPSEVSDTNLYSPFKPRNYQLELALPAMKGKNTIICAPTGCGKTFVSLLICEHHLKKFPQGQKGKVVFFANQIPVYEQQKSVFSKYFERHGYRVTGISGATAENVPVEQIVENNDIIILTPQILVNNLKKGTIPSLSIFTLMIFDECHNTSKQHPYNMIMFNYLDQKLGGSSGPLPQVIGLTASVGVGDAKNTDEALDYICKLCASLDASVIATVKHNLEELEQVVYKPQKFFRKVESRISDKFKYIIAQLMRDTESLAKRICKDLENLSQIQNREFGTQKYEQWIVTVQKACMVFQMPDKDEESRICKALFLYTSHLRKYNDALIISEHARMKDALDYLKDFFSNVRAAGFDEIEQDLTQRFEEKLQELESVSRDPSNENPKLEDLCFILQEEYHLNPETITILFVKTRALVDALKNWIEGNPKLSFLKPGILTGRGKTNQNTGMTLPAQKCILDAFKASGDHNILIATSVADEGIDIAQCNLVILYEYVGNVIKMIQTRGRGRARGSKCFLLTSNAGVIEKEQINMYKEKMMNDSILRLQTWDEAVFREKILHIQTHEKFIRDSQEKPKPVPDKENKKLLCRKCKALACYTADVRVIEECHYTVLGDAFKECFVSRPHPKPKQFSSFEKRAKIFCARQNCSHDWGIHVKYKTFEIPVIKIESFVVEDIATGVQTLYSKWKDFHFEKIPFDPAEMSK
- binding: binds
